# Reference: the supplement of paper PMC6411743
# Amino acid sequences for entries named in this document (tags omitted). A change or cut given only in a name is not applied to a line headed by its entry.
# UniProt P26641, whole entry: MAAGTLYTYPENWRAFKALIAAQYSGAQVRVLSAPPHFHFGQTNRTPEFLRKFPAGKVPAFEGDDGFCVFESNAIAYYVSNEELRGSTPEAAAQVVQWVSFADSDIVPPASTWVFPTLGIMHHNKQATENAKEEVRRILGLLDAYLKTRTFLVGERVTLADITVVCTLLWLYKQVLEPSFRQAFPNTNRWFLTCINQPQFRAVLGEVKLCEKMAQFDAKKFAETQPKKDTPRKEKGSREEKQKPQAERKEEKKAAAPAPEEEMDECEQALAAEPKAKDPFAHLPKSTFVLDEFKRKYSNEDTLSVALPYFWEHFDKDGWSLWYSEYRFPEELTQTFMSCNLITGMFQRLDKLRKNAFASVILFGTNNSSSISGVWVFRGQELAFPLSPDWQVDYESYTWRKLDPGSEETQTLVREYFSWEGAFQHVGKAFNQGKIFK
# UniProt P22314: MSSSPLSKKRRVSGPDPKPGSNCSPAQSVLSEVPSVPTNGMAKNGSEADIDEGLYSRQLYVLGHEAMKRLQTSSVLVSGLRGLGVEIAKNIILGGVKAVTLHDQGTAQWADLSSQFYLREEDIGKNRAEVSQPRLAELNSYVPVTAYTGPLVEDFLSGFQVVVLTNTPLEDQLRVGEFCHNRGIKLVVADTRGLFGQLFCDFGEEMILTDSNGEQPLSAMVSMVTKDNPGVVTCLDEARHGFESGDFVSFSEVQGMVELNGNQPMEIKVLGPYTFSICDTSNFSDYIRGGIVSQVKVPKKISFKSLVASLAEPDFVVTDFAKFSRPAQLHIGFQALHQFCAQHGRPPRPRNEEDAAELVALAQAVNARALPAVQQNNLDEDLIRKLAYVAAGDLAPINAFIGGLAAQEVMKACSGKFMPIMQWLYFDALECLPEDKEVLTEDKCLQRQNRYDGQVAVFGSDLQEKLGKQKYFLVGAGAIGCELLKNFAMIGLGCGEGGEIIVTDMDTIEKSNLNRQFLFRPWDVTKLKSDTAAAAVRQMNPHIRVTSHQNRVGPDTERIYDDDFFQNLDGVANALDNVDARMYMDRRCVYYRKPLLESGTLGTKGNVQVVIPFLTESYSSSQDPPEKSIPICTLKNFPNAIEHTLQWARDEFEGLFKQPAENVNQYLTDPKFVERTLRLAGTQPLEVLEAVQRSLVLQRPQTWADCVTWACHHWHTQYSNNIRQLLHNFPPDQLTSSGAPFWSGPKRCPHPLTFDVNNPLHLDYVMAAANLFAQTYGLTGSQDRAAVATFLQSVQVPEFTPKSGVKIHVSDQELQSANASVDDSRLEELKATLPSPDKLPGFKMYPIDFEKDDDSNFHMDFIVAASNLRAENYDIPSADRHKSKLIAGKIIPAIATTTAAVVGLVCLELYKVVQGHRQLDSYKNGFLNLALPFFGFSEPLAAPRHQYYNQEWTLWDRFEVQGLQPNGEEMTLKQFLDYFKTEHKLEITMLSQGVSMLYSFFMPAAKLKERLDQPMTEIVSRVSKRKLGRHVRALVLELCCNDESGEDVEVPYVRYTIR
# UniProt P25445, whole entry: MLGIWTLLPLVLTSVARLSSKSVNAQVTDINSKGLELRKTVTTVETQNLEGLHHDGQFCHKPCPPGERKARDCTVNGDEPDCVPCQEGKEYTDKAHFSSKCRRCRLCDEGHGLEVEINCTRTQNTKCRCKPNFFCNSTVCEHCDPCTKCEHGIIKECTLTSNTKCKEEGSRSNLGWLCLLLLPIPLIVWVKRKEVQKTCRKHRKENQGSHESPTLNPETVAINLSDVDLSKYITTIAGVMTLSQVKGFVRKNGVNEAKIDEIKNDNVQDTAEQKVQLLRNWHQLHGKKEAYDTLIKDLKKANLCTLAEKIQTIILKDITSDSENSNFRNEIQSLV
# UniProt P28066: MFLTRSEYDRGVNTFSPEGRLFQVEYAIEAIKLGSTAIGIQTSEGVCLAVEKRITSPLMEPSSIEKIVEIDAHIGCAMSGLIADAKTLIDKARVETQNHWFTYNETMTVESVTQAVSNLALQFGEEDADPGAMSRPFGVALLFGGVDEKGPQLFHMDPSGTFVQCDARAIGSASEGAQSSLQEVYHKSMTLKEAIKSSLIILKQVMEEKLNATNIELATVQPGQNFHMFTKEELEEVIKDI
# UniProt P31749: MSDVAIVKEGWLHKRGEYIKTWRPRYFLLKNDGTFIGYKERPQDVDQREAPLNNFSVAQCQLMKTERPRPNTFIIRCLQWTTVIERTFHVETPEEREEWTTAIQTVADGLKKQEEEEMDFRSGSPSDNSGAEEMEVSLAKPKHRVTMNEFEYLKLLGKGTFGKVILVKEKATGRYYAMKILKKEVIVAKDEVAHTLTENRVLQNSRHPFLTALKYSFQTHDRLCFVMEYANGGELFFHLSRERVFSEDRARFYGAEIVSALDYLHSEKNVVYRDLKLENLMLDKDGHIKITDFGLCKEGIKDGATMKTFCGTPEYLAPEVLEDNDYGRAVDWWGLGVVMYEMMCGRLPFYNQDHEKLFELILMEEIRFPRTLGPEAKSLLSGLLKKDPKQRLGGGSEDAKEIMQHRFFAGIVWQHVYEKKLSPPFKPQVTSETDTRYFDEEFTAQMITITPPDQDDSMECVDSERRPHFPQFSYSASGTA
# UniProt P21580: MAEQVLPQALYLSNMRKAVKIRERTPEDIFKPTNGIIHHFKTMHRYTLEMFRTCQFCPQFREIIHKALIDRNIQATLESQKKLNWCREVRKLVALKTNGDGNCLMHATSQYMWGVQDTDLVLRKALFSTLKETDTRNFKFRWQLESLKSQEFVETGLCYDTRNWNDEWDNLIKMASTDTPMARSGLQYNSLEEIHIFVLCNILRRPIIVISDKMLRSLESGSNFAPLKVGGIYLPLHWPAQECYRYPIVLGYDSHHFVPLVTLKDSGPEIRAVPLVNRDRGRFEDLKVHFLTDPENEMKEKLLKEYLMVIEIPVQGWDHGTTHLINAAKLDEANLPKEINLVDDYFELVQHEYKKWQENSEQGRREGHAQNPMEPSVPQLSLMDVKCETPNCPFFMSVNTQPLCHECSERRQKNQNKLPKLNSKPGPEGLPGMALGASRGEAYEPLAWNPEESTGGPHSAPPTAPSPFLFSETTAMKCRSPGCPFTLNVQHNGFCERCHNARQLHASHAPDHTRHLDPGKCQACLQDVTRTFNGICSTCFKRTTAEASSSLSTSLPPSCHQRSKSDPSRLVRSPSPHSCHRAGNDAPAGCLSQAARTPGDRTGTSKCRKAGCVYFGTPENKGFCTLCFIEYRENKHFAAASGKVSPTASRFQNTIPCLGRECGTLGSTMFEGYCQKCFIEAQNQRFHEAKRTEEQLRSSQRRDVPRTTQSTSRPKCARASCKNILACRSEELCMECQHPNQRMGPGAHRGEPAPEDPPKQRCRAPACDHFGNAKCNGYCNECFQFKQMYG
# UniProt P17568, whole entry: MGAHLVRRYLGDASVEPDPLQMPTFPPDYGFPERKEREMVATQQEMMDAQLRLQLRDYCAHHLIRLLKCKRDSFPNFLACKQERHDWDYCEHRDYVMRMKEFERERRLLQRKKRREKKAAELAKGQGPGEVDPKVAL
# UniProt P32242: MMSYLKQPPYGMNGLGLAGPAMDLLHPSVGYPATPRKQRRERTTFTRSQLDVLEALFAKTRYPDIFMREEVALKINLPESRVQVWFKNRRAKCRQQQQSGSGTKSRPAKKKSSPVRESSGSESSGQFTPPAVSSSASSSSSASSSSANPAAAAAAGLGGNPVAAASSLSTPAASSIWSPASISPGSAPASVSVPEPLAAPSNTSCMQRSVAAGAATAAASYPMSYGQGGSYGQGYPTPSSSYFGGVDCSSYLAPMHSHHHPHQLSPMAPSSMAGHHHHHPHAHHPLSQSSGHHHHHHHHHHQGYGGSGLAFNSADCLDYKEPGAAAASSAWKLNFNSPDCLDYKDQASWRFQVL
# UniProt P21333, whole entry: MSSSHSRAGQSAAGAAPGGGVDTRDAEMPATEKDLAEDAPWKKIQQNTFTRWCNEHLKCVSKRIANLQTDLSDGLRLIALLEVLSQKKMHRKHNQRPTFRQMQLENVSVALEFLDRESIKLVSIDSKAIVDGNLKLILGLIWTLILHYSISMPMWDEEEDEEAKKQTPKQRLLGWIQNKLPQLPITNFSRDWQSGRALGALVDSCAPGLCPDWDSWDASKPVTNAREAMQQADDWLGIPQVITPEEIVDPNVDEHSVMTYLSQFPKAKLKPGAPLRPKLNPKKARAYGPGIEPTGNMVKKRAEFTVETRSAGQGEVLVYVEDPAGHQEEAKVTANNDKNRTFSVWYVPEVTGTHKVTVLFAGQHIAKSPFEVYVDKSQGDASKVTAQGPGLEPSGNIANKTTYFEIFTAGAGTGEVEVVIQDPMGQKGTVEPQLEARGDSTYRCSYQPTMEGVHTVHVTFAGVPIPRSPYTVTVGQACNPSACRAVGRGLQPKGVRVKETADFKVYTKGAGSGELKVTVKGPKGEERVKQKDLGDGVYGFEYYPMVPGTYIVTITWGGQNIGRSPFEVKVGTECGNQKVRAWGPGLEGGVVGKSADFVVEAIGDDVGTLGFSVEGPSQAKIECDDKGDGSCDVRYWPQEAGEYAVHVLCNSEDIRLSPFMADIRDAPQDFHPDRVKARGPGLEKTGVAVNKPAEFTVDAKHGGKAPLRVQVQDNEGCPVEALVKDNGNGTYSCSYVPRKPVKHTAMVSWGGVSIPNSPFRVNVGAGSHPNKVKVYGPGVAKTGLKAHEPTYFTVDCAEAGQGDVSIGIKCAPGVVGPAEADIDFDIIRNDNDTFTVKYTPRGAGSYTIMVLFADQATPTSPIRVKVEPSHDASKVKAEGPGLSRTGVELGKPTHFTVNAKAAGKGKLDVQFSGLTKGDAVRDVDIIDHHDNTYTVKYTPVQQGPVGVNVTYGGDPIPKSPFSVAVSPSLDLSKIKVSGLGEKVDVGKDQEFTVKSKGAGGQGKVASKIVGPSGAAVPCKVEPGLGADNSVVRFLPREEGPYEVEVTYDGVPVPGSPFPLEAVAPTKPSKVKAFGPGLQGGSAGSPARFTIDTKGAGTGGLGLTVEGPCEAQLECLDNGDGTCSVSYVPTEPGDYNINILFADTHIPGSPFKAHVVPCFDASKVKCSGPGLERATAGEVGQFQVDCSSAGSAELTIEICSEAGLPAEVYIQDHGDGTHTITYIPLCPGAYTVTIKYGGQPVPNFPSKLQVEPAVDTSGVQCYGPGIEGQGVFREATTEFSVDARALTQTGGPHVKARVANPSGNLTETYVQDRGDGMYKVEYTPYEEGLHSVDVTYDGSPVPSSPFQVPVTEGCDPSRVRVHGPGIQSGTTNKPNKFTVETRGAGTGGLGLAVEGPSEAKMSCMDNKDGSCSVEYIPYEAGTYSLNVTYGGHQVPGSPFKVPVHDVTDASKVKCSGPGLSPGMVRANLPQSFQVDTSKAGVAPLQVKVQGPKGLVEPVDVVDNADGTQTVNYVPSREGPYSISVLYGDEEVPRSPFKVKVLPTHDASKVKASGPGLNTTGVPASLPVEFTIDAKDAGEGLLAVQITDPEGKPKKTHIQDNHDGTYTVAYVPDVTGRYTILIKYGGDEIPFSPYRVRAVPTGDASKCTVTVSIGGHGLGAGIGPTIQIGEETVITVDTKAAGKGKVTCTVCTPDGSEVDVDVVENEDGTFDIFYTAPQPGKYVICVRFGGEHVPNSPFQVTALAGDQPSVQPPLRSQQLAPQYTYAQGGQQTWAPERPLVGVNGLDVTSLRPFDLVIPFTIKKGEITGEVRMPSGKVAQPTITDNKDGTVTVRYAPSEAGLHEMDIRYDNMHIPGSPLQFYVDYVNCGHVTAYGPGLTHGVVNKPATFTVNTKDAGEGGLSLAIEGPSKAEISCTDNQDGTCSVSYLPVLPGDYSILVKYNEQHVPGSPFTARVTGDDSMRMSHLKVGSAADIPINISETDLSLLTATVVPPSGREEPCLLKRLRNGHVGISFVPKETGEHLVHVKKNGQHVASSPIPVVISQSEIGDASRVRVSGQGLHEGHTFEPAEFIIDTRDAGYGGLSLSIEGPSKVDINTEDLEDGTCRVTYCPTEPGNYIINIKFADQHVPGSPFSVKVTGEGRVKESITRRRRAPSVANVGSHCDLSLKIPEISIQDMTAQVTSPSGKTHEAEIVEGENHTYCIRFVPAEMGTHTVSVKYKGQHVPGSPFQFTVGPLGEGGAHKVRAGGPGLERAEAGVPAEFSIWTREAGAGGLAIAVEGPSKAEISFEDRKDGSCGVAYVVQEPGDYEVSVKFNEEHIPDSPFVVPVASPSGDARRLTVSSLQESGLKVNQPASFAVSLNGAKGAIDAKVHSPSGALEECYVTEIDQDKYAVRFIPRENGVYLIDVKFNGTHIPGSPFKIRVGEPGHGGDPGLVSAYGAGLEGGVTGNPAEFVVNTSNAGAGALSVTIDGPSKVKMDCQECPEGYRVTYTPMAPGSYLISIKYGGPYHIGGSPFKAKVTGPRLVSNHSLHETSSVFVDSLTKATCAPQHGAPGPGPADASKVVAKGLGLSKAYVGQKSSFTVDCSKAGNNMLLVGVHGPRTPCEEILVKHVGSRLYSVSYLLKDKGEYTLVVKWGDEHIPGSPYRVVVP
# ± gives the standard deviation of the averaged measurements. The list shows a part of the results, in another mix than the full data.
# Compound: Nc1ncnc2c1ncn2[C@@H]1O[C@H](COP(=O)(O)OP(=O)(O)OP(=O)(O)O)[C@@H](O)[C@H]1O [adenosine triphosphate]
# Experiment: NP40-soluble protein abundance relative to vehicle (solubility fold change) (ratio); higher = more soluble protein in presence of ATP
# Procedure, shortened: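 In three independent experiments, Jurkat crude lysate made by Dounce homogenisation was treated for 10 min at room temperature and then 3 min at 37 °C with eight concentrations ranging from 0.1 to 10 mM. It was then solubilised with 0.8% NP40 plus benzonase for 60 min at 4 °C and ultracentrifuged. The supernatant was TMT-labelled for LC-MS/MS, and each value is the fold change against the detergent-processed vehicle for the same replicate, using vsn-normalised intensities.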
Target,NP40-soluble protein abundance (concentration: 1mM),NP40-soluble protein abundance (concentration: 2mM),NP40-soluble protein abundance (concentration: 4mM),NP40-soluble protein abundance (concentration: 6mM),NP40-soluble protein abundance (concentration: 8mM),NP40-soluble protein abundance (concentration: 10mM)
PRKCH (UniProt P24723),1.04 ± 0.056,1.03 ± 0.041,1 ± 0.044,0.99 ± 0.11,1.05 ± 0.04,1.05 ± 0.025
EEF1G (UniProt P26641),0.967 ± 0.021,0.915 ± 0.022,0.878 ± 0.0089,0.907 ± 0.025,0.917 ± 0.022,0.895 ± 0.043
UniProt P17612,0.97 ± 0.05,0.956 ± 0.012,0.885 ± 0.02,0.924 ± 0.024,0.885 ± 0.028,0.862 ± 0.043
TCEA1 (UniProt P23193),0.926 ± 0.04,0.957 ± 0.014,0.934 ± 0.036,0.9666 ± 0.0084,0.92 ± 0.019,0.93 ± 0.024
UniProt P22314 and related entries,0.983 ± 0.02,0.978 ± 0.037,0.955 ± 0.034,0.947 ± 0.068,0.956 ± 0.036,0.948 ± 0.052
ATP6V1B2 (UniProt P21281),1 ± 0.012,0.983 ± 0.019,0.978 ± 0.027,0.993 ± 0.013,0.993 ± 0.012,0.982 ± 0.03
AKAP5 (UniProt P24588),0.905 ± 0.031,0.944 ± 0.011,0.933 ± 0.046,0.949 ± 0.064,0.929 ± 0.099,0.9564 ± 0.0074
UniProt P25445 and related entries,0.933 ± 0.048,0.949 ± 0.017,0.946 ± 0.026,0.992 ± 0.05,0.935 ± 0.035,0.889 ± 0.013
ABCD1 (UniProt P33897),1.11 ± 0.024,1.11 ± 0.037,1.15 ± 0.089,1.08 ± 0.043,1.14 ± 0.11,1.1 ± 0.027
TRIM21 (UniProt P19474),0.99 ± 0.034,0.984 ± 0.044,0.979 ± 0.055,0.981 ± 0.06,0.984 ± 0.045,0.972 ± 0.04
HNRNPA2B1 (UniProt P22626),1.14 ± 0.12,1.04 ± 0.13,1.04 ± 0.13,1.19 ± 0.28,1.18 ± 0.2,1.22 ± 0.22
RPA1 (UniProt P27694),1.02 ± 0.079,1.01 ± 0.067,0.976 ± 0.059,0.96 ± 0.084,0.984 ± 0.06,0.978 ± 0.042
UniProt P25786 and related entries,0.968 ± 0.032,0.93 ± 0.018,0.902 ± 0.022,0.93 ± 0.081,0.913 ± 0.044,0.897 ± 0.026
GTF2E2 (UniProt P29084),0.965 ± 0.047,0.96 ± 0.032,0.928 ± 0.03,0.976 ± 0.056,0.896 ± 0.024,0.9122 ± 0.007
UniProt P20936 and related entries,1.02 ± 0.024,0.997 ± 0.015,1 ± 0.042,0.973 ± 0.043,1 ± 0.025,0.97 ± 0.035
UniProt P30307 and related entries,0.955 ± 0.026,0.992 ± 0.039,0.973 ± 0.058,0.955 ± 0.054,0.901 ± 0.052,0.905 ± 0.078
UniProt P30622-1|P30622-2,0.996 ± 0.063,1 ± 0.044,0.989 ± 0.026,1.04 ± 0.04,0.964 ± 0.011,0.9851 ± 0.0058
PFKL (UniProt P17858),1.06 ± 0.049,1.02 ± 0.024,1.021 ± 0.0043,0.9991 ± 0.0064,1.05 ± 0.039,1.06 ± 0.067
UniProt P30520,0.965 ± 0.046,0.952 ± 0.049,0.952 ± 0.04,0.934 ± 0.059,0.959 ± 0.054,0.934 ± 0.054
MCM3 (UniProt P25205),0.963 ± 0.04,0.939 ± 0.023,0.91 ± 0.012,0.8963 ± 0.0084,0.933 ± 0.027,0.937 ± 0.04

# Whole records from above. Order of values: NP40-soluble protein abundance (concentration: 1mM)	NP40-soluble protein abundance (concentration: 2mM)	NP40-soluble protein abundance (concentration: 4mM)	NP40-soluble protein abundance (concentration: 6mM)	NP40-soluble protein abundance (concentration: 8mM)	NP40-soluble protein abundance (concentration: 10mM)
# ABCD1 (UniProt P33897) reads 1.11 ± 0.024	1.11 ± 0.037	1.15 ± 0.089	1.08 ± 0.043	1.14 ± 0.11	1.1 ± 0.027
# HNRNPA2B1 (UniProt P22626) reads 1.14 ± 0.12	1.04 ± 0.13	1.04 ± 0.13	1.19 ± 0.28	1.18 ± 0.2	1.22 ± 0.22

# (further entries)

Target,NP40-soluble protein abundance (concentration: 1mM),NP40-soluble protein abundance (concentration: 2mM),NP40-soluble protein abundance (concentration: 4mM),NP40-soluble protein abundance (concentration: 6mM),NP40-soluble protein abundance (concentration: 8mM),NP40-soluble protein abundance (concentration: 10mM)
UniProt P17252,0.99 ± 0.02,0.988 ± 0.041,0.945 ± 0.034,0.986 ± 0.067,0.952 ± 0.051,0.944 ± 0.043
RPL35A (UniProt P18077),1.1 ± 0.11,1.02 ± 0.089,1 ± 0.043,1.01 ± 0.082,0.932 ± 0.094,1.06 ± 0.062
UniProt P18754 and related entries,1.01 ± 0.045,1.03 ± 0.022,1.02 ± 0.022,1.04 ± 0.024,1.04 ± 0.041,1.03 ± 0.03
HOXB4 (UniProt P17483),1.03 ± 0.068,0.979 ± 0.037,0.96 ± 0.044,0.934 ± 0.043,1.02 ± 0.16,0.897 ± 0.019
GGT1 (UniProt P19440),0.951 ± 0.034,1.05 ± 0.056,0.992 ± 0.023,1.02 ± 0.036,0.925 ± 0.036,0.857 ± 0.13
UniProt P28066,0.995 ± 0.011,0.971 ± 0.023,0.943 ± 0.043,0.974 ± 0.061,0.95 ± 0.026,0.919 ± 0.047
RRM1 (UniProt P23921),1.03 ± 0.18,0.982 ± 0.13,0.965 ± 0.12,0.853 ± 0.16,1.01 ± 0.062,0.953 ± 0.065
ATP2A2 (UniProt P16615),1.03 ± 0.038,1.01 ± 0.036,0.99 ± 0.035,0.98 ± 0.062,1.01 ± 0.038,0.981 ± 0.03
TUBG1 (UniProt P23258),1.14 ± 0.086,1.1 ± 0.054,1.09 ± 0.083,1.1 ± 0.13,1.2 ± 0.099,1.16 ± 0.14
M6PR (UniProt P20645),0.938 ± 0.023,0.931 ± 0.027,0.9422 ± 0.0066,0.934 ± 0.039,0.925 ± 0.039,0.878 ± 0.044
ALDH4A1 (UniProt P30038),0.966 ± 0.064,0.967 ± 0.011,0.953 ± 0.019,0.962 ± 0.039,0.941 ± 0.015,0.938 ± 0.01
KIF5B (UniProt P33176),0.967 ± 0.057,0.96 ± 0.019,0.943 ± 0.016,0.994 ± 0.038,0.943 ± 0.019,0.936 ± 0.029
DNAJA1 (UniProt P31689),1.04 ± 0.047,1.02 ± 0.033,1.01 ± 0.017,1.04 ± 0.07,1.08 ± 0.039,1.05 ± 0.049
MGAT1 (UniProt P26572),1.12 ± 0.17,1.1 ± 0.052,1.13 ± 0.2,1.08 ± 0.17,1.06 ± 0.11,1.056 ± 0.01
UniProt P32019 and related entries,1.02 ± 0.2,1 ± 0.12,1.02 ± 0.17,0.925 ± 0.12,1 ± 0.14,0.941 ± 0.047
UniProt P23396 and related entries,0.853 ± 0.038,0.795 ± 0.085,0.756 ± 0.081,0.694 ± 0.062,0.65 ± 0.083,0.742 ± 0.081
UniProt P28482,0.958 ± 0.051,0.965 ± 0.057,0.93 ± 0.036,0.903 ± 0.085,0.942 ± 0.042,0.943 ± 0.026
AKT1 (UniProt P31749),0.986 ± 0.08,1.01 ± 0.081,0.991 ± 0.04,0.963 ± 0.1,1.01 ± 0.045,1 ± 0.05
UniProt P35609-2,0.832 ± 0.026,0.852 ± 0.049,0.822 ± 0.071,0.981 ± 0.086,0.818 ± 0.02,0.953 ± 0.015
CCND3 (UniProt P30281),0.938 ± 0.09,0.94 ± 0.06,0.876 ± 0.03,0.869 ± 0.037,0.87 ± 0.014,0.939 ± 0.019

Target,NP40-soluble protein abundance (concentration: 1mM),NP40-soluble protein abundance (concentration: 2mM),NP40-soluble protein abundance (concentration: 4mM),NP40-soluble protein abundance (concentration: 6mM),NP40-soluble protein abundance (concentration: 8mM),NP40-soluble protein abundance (concentration: 10mM)
UniProt P29353 and related entries,1 ± 0.021,1.03 ± 0.064,0.998 ± 0.029,0.966 ± 0.015,1 ± 0.063,1.04 ± 0.051
NMT1 (UniProt P30419),1.02 ± 0.027,1.04 ± 0.048,1.06 ± 0.016,1.12 ± 0.064,1.113 ± 0.011,1.09 ± 0.026
TNFAIP3 (UniProt P21580),0.936 ± 0.031,0.912 ± 0.046,0.977 ± 0.04,0.941 ± 0.002,0.968 ± 0.014,0.954 ± 0.026
GTF2F1 (UniProt P35269),0.953 ± 0.056,0.95 ± 0.0098,0.912 ± 0.02,0.985 ± 0.049,0.907 ± 0.033,0.915 ± 0.028
UniProt P18206 and related entries,0.934 ± 0.052,0.957 ± 0.032,0.953 ± 0.039,0.966 ± 0.024,0.914 ± 0.034,0.935 ± 0.017
EEF1B2 (UniProt P24534),0.833 ± 0.41,0.82 ± 0.31,0.927 ± 0.11,0.701 ± 0.27,0.808 ± 0.056,0.68 ± 0.18
NDUFB7 (UniProt P17568),0.937 ± 0.12,0.919 ± 0.073,0.947 ± 0.097,1.02 ± 0.075,0.924 ± 0.031,0.903 ± 0.14
UniProt P25705 and related entries,0.975 ± 0.031,0.946 ± 0.019,0.913 ± 0.023,0.944 ± 0.042,0.921 ± 0.052,0.931 ± 0.052
UniProt P32242,0.954 ± 0.19,0.872 ± 0.15,0.953 ± 0.18,0.847 ± 0.13,0.914 ± 0.14,0.956 ± 0.17
UniProt P35606 and related entries,1.01 ± 0.065,0.992 ± 0.061,0.985 ± 0.053,0.975 ± 0.027,1.02 ± 0.027,0.98 ± 0.046
PEBP1 (UniProt P30086),1.01 ± 0.09,0.97 ± 0.011,0.9448 ± 0.0061,0.979 ± 0.03,0.95 ± 0.025,0.924 ± 0.03
UniProt P29590 and related entries,0.909 ± 0.048,0.911 ± 0.028,0.899 ± 0.034,0.947 ± 0.053,0.909 ± 0.012,0.934 ± 0.0095
EIF2S2 (UniProt P20042),0.963 ± 0.05,1.02 ± 0.027,0.981 ± 0.029,1.06 ± 0.02,0.99 ± 0.013,1.018 ± 0.0065
UniProt P35658 and related entries,0.9604 ± 0.0074,0.976 ± 0.021,1.01 ± 0.012,1.04 ± 0.011,1.028 ± 0.0092,1.08 ± 0.024
UniProt P26038 and related entries,1.01 ± 0.058,0.954 ± 0.031,0.943 ± 0.012,1 ± 0.065,0.915 ± 0.055,0.914 ± 0.06
UQCRC1 (UniProt P31930),0.9928 ± 0.0085,0.9881 ± 0.0093,0.964 ± 0.018,0.98 ± 0.02,0.957 ± 0.027,0.95 ± 0.022
PLCG2 (UniProt P16885),1.06 ± 0.1,1.04 ± 0.095,1.03 ± 0.11,0.995 ± 0.13,1.03 ± 0.073,1.01 ± 0.059
UniProt P21333-2|P21333 and related entries,0.971 ± 0.031,0.953 ± 0.015,0.907 ± 0.023,0.972 ± 0.021,0.909 ± 0.029,0.92 ± 0.045
CTH (UniProt P32929),1.05 ± 0.14,0.979 ± 0.077,0.958 ± 0.057,0.885 ± 0.1,0.97 ± 0.017,0.982 ± 0.051
UniProt P17010 and related entries,0.977 ± 0.082,0.959 ± 0.075,0.952 ± 0.16,0.978 ± 0.085,0.932 ± 0.26,1.08 ± 0.078
